Measured values from PubChem BioAssay AID445 (National Center for Advancing Translational Sciences (NCATS), 2006).
The other results are listed elsewhere or left out. The main result of the screen is listed elsewhere. These columns were measured beside it and carry no call. Compounds called inactive in the main read-out are mostly missing here. Words in brackets tell the shape of the fitted curve; partial curves, single points and poor fits give uncertain potencies.

Assay: IkB Signaling
Settings: ABC-DLBCL IkBa-CBG/CBR dual luciferase ratio (green luciferase fused to IkBa over red control in OCI-Ly3 lymphoma cells), 4 h
Method in brief: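 Luminescence ratio of IκBα-fused green versus native red beetle luciferase in OCI-Ly3 cells, 4 h post-doxycycline with compound; red signal alone, scaled from basal (0%) to zero light (-100%), flagged nonspecific or cytotoxic effects.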

[1] = measured here: control luc red channel unless noted
[2] = measured here: IkB-luc green channel
[3] = measured here: control luc red channel

COc1ccc(OC)c(NC(=O)CSc2c3c(nc4ccccc24)CCCC3)c1
AC50 [1]: 10 µM [falling, partial curve]

CCOC(=O)N/C(N)=N/c1nc2ccccc2s1
AC50 [2]: 31.6 µM [rising, partial curve]
AC50 [3]: 12.6 µM [falling, partial curve]

COc1ccc(CCN2C(=O)N(c3ccc(F)cc3)C(=O)C2CC(=O)Nc2ccc(F)c(F)c2)cc1 (centres undefined)
AC50 [1]: 25.1 µM [falling, single point]

C=CCn1c(SCC(=O)Nc2ccc3c(c2)OCO3)nnc1-c1ccccc1O
AC50 [1]: 25.1 µM [falling, partial curve]

O=C(O)CCCC(=O)Nc1nc(-c2ccc(F)cc2)cs1
AC50 [1]: 0.251 µM [falling, full curve]

COCc1nnc(NC(=O)CCC2CCCCC2)s1
AC50 [1]: 0.631 µM [rising, full curve, poor fit]

O=S(=O)(NC1CCCC1)c1ccc(S(=O)(=O)N2CCc3ccccc32)cc1
AC50 [1]: 31.6 µM [falling, partial curve]

Cc1sc2c(c1C)c(=O)n(-c1cccc(C(F)(F)F)c1)c(=O)n2Cc1ccccc1C#N
AC50 [1]: 0.1 µM [rising, partial curve]

CCCCn1c(-c2ccc(C)cc2)c(C)n2c3c(=O)n(C)c(=O)n(C)c3nc12
AC50 [1]: 12.6 µM [falling, partial curve]

Cc1ccc(OCCCCn2c(CCNC(=O)C(C)(C)C)nc3ccccc32)cc1
AC50 [1]: 15.8 µM [falling, partial curve]

O=C(CCC1CCCCC1)Nc1ccccc1O
AC50 [1]: 7.94 µM [falling, partial curve]

Cc1cc(C)cc(N(CC(=O)Nc2cccc(C)n2)S(=O)(=O)c2c(C)noc2C)c1
AC50 [1]: 10 µM [falling, partial curve]

Clc1cccc(-c2nnc(SCc3nc4ccccc4[nH]3)n2Cc2ccco2)c1
AC50 [1]: 25.1 µM [falling, partial curve]

O=C(NC1CCCC1)c1ccc2c(c1)N(Cc1ccccc1F)C(=O)c1ccccc1S2
AC50 [2]: 3.16 µM [rising, single point]
AC50 [3]: 3.98 µM [rising, partial curve, poor fit]

CC1=C(C(=O)OCc2ccc(C)cc2)C(c2ccccc2Cl)CC(=O)N1 (centres undefined)
AC50 [1]: 39.8 µM [rising, single point] [measured here: IkB-luc green channel]

Cc1cccc(OCC(=O)Nc2ccc3c(c2)nc(CCNC(=O)c2ccco2)n3C)c1
AC50 [1]: 12.6 µM [falling, partial curve]

Cc1c(NC(=O)Nc2cccc(Cl)c2)c(=O)n(-c2ccccc2)n1C
AC50 [1]: 39.8 µM [rising, single point]
